Tested on: MC3T3 cells
Experiment: Microarray analysis (GSEA, IPA) of thapsigargin-induced mild ER stress
Format: cell-based, mouse
Settings: 10 nM; score of 3 or above statistically significant

## C/C=C(/C)C(=O)O[C@H]1C(C)=C2[C@H]([C@@H]1OC(=O)CCCCCCC)[C@@](C)(OC(C)=O)C[C@H](OC(=O)CCC)[C@@]1(O)[C@H]2OC(=O)[C@@]1(C)O [thapsigargin]
  IPA pathway score (Pathway 1 and Pathway 2): 55
